This note sets out measurements from doi:10.1101/2024.09.06.611746.

No constants are given. Whether binding was seen depends on the method and setting. Binding seen in cells or lysates may run through a third protein. Binding can be weak; no strength is given.

In this experiment the target is Flag-tagged porcine CaV3.1 fragment pCav3.1N_(2209-4506) (porcine). As to the kind of experiment: co-IP.

B1: Pasteurella multocida toxin (PMT), recombinant (protein, UniProt P17452 1-1285)
chain: MKTKHFFNSDFTVKGKSADEIFRRLCTDHPDKQLNNVKWKEVFINRFGQMMLDTPNPRKIVEKIINEGLEKQGLKNIDPETTYFNIFSSSDSSDGNVFHYNSLSESYRVTDACLMNIFVERYFDDWDLLNSLASNGIYSVGKEGAYYPDHDYGPEYNPVWGPNEQIYHSRVIADILYARSVWDEFKKYFMEYWQKYAQLYTEMLSDTFLAMAIQQYTRQTLTDEGFLMVCNTYYGNKEEVQITLLDIYGYPSTDIICIEQKGLPTPKVILYIPGGTQPFVEFLNTDDLKQWIAWHLKDNKHMVAFRKHFSLKQRQEGETFTGIDKALQYIAEESPEWPANKYILYNPTHLETENLFNIMMKRTEQRMLEDSDVQIRSNSEATRDYALSLLETFISQLSAIDMLVPAVGIPINFALSATALGLSSDIVVNGDSYEKRKYGIGSLVQSALFTGINLIPVISETAEILSSFSRTEEDIPAFFTEEQALAQRFEIVEEELHSISPDDPPREITDENLHKIRLVRLNNENQPLVVLRRLGGNKFIRIEPITFQEIKGSLVSEVINPVTNKTYYVSNAKLLGGSPYSPFRIGLEGVWTPEVLKARASVIGKPIGESYKRILAKLQRIHNSNILDERQGLMHELMELIDLYEESQPSSERLNAFRELRTQLEKALYLPEMEALKKQILQIPNKGSGAARFLLRTAMNEMAGKTSESTADLIRFALQDTVISAPFRGYAGAIPEAIDFPVKYVIEDISVFDKIQTNYWELPAYESWNEGSNSALLPGLLRESQSKGMLSKCRIIENSLYIGHSYEEMFYSISPYSNQVGGPYELYPFTFFSMLQEVQGDLGFEQAFATRNFFNTLVSDRLSLMENTMLLTESFDYTPWDAIYGDINYDEQFAAMSINERIEKCMNTYRGVAFQNSSKSIDFFLNNLTTFIDNGLTEIAISDLPYDIVQQEISQFLQGSNEWKTLDAMLFNLDKGDINGAFRKLLQSAKDNNIKFRAIGHSDNSVPPFNNPYKSLYYKGNIIAEAIEKLDREGQKFVVFADSSLLNSTPGTGRPMPGLVQYLKIPATVVDSDGAWQFLPDVASSRVPIEVTELENWQVLTPPQGKILGLKQFKLTAGFPTEQSRLPLLENSVSEDLREELMQKIDAIKNDVKMNSLVCMEAGSCDSVSPKVAARLKDMGLEAGMGASITWWRREGGMEFSHQMHTTASFKFAGKEFAVDASHLQFVHDQLDTTILILPVDDWALEIAQRNRAINPFVEYVSKTGNMLALFMPPLFTKPRLTRAL
As to B1, the binding entry is listed as “binds”.
